Common to all, as to experiment: proximity labelling; BioID2 fused to the C-terminus of the receptor, stable HEK293 clones, 50 µM biotin (24 h in the methods, 16 h in the results and legend); lysis in 8 M urea, streptavidin Sepharose pull-down, LC-MS/MS; enrichment against BioID alone (fold change ≥3, SAINT score ≥0.8)
The target in assay [1] is SREB3-BioID (human SREB3/GPR173 fused to 3×(GGGGS)-linker, BioID2 and HA tag) (human) (UniProt Q9NS66).
For assay [2], the target named is T1, CMKLR1-BioID (human CMKLR1, chemerin receptor, fused to 3×(GGGGS)-linker, BioID2 and HA tag) (human) (UniProt Q99788).
T1 sequence: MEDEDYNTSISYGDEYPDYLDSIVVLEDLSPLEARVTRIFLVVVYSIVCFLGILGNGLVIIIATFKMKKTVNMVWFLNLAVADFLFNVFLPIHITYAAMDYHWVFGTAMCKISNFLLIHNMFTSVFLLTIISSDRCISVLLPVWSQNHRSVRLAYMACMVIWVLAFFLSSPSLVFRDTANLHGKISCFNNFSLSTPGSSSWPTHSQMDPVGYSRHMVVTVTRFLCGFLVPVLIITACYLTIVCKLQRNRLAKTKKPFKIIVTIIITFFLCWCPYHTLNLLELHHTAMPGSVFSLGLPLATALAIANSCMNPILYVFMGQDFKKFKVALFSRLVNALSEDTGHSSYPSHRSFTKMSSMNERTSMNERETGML

Protein sequences, listed by entry. Tags and fused reporters are not part of them.
UniProt Q9NS66: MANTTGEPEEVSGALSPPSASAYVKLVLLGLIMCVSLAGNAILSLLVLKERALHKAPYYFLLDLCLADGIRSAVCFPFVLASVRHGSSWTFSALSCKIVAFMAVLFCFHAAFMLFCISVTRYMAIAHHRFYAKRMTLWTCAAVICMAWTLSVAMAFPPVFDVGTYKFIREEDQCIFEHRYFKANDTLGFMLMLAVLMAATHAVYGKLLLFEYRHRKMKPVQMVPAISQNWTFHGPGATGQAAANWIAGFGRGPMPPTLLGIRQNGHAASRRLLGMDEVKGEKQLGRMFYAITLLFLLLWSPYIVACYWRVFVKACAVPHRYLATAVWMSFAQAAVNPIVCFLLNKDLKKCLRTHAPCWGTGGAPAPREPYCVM
UniProt P60893: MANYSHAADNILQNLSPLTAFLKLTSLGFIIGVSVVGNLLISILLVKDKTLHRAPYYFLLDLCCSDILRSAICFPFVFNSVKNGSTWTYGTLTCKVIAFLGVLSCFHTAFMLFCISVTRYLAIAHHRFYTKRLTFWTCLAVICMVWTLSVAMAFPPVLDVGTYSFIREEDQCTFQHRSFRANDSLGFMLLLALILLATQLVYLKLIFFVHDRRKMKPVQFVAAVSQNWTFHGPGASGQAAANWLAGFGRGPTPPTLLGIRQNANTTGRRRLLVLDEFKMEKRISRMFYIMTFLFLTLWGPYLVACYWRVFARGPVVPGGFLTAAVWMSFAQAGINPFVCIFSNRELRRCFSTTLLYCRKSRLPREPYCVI
UniProt Q9NS67: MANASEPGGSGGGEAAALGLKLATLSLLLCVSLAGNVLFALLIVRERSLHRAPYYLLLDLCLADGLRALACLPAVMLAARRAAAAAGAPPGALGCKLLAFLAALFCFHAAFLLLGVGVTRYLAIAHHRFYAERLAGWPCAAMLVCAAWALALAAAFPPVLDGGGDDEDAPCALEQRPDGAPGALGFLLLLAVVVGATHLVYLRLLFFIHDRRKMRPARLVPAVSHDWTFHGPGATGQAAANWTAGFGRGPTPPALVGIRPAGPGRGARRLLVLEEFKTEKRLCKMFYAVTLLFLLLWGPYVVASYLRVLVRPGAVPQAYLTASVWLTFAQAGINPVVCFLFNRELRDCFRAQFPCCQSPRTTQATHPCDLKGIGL
UniProt O43491: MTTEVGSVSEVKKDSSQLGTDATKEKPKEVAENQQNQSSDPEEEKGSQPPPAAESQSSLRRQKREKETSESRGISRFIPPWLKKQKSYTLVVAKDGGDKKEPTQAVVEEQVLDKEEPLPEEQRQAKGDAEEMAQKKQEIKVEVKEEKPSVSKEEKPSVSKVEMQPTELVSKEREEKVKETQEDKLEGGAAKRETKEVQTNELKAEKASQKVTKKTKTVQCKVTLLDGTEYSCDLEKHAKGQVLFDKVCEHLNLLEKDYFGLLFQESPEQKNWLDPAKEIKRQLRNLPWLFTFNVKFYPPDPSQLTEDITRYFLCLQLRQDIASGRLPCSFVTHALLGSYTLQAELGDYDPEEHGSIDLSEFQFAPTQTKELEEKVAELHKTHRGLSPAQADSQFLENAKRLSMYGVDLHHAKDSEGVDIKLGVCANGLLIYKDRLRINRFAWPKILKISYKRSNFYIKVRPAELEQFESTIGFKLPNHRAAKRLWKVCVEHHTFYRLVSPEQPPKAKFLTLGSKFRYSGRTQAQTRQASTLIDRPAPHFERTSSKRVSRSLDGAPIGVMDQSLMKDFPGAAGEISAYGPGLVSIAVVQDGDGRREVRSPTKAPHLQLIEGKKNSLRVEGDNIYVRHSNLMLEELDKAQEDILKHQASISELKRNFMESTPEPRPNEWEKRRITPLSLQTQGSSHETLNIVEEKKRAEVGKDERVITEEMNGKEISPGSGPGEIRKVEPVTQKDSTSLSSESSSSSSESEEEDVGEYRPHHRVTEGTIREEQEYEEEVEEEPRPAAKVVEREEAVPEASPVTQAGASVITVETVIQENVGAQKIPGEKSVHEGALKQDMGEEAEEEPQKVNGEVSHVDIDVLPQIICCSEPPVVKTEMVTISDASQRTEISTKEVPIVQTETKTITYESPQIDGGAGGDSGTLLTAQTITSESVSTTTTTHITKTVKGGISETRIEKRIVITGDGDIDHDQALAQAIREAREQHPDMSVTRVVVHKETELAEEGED
UniProt Q9Y2J2: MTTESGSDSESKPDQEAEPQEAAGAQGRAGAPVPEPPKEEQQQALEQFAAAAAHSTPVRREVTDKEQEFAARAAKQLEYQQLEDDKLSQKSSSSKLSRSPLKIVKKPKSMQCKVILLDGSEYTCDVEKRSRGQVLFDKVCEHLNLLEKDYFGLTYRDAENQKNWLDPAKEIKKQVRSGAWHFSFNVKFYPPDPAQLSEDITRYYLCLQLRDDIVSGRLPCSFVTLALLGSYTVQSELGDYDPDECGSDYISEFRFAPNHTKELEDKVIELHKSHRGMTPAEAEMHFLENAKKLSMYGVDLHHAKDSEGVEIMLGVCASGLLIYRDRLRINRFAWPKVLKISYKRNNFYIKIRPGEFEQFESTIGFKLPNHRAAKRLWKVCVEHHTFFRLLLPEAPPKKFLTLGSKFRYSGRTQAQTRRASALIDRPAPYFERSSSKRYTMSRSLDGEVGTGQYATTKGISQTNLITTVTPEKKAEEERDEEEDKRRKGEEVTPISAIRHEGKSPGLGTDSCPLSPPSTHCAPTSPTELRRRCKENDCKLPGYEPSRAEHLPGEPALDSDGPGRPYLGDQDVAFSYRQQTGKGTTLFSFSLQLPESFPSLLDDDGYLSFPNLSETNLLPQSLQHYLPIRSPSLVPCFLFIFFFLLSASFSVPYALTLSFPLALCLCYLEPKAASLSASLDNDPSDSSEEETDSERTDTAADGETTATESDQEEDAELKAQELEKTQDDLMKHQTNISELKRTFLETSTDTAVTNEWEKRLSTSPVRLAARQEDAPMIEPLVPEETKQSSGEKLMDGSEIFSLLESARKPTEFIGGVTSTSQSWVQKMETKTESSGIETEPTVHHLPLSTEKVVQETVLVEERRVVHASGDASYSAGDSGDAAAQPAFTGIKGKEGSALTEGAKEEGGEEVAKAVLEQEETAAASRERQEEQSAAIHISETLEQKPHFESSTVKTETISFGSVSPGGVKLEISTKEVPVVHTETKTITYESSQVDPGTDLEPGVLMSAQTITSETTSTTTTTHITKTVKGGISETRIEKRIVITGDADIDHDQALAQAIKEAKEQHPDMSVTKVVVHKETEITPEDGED
UniProt P29992: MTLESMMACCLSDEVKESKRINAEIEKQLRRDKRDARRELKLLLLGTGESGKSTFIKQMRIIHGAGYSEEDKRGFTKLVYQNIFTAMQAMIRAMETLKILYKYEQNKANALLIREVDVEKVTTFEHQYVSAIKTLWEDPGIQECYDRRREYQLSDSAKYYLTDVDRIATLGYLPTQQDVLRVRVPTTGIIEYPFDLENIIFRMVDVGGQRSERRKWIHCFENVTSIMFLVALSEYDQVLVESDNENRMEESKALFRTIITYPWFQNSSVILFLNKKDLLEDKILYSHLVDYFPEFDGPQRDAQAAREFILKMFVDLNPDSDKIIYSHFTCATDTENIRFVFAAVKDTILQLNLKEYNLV
UniProt P04899: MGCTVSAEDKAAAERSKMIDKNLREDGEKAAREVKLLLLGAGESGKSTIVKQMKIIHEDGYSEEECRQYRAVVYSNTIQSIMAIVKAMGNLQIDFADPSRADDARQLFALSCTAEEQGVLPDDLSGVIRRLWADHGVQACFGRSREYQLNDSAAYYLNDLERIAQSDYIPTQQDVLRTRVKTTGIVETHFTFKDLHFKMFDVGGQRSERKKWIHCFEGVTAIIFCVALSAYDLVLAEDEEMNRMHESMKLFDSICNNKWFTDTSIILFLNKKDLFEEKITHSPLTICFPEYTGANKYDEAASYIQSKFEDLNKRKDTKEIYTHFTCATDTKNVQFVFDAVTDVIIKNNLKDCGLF
UniProt P63092: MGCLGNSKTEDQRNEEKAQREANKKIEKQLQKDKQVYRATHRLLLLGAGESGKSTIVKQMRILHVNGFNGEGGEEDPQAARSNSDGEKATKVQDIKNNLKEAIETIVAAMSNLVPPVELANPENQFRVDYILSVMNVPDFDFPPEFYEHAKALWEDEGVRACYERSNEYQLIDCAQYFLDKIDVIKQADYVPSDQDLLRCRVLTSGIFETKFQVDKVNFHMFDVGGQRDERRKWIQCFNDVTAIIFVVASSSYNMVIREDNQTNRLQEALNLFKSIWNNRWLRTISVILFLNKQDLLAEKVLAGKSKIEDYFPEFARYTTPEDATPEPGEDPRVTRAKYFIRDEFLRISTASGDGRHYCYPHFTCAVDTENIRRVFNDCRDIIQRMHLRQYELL

Assay [3] addresses SREB2-BioID (human SREB2/GPR85 fused to 3×(GGGGS)-linker, BioID2 and HA tag) (human) (UniProt P60893).
Assay [4] concerns the target SREB1-BioID (human SREB1/GPR27 fused to 3×(GGGGS)-linker, BioID2 and HA tag) (human) (UniProt Q9NS67).

These are yes or no findings as the source states them, for the method shown. Binding seen in cells or lysates may run through a third protein. These calls come from enrichment with a bait or labelling near it, and not all partners need be listed. For some of these results: A no says only that the protein was not detected with the bait. For some of these results: Tags and fused reporters may be left off the sequences shown.

Consider “EPB41L2 (endogenous, biotinylated in HEK293 cells) (from UniProt O43491 1-1005)”, for which the binding result in assay [1], in assay [2], in assay [3] and in assay [4] was “binds” each time.
Consider “EPB41L3 (endogenous, biotinylated in HEK293 cells) (from UniProt Q9Y2J2 1-1087)”, for which the binding entry in assay [1], in assay [2] and in assay [3] was “binds” in each case.
As to “Gα11 (endogenous, HEK293 cells) (from UniProt P29992 1-359)”, the binding entry was “no binding” in assay [1], “binds” in assay [2], “no binding” in assay [3] and “no binding” in assay [4].
Consider “Gαi2 (endogenous, HEK293 cells) (from UniProt P04899 1-355)”, for which the binding result was “no binding” in assay [1], “binds” in assay [2], “no binding” in assay [3] and “no binding” in assay [4].
“Gαs (endogenous, HEK293 cells) (from UniProt P63092 1-394)”: the binding entry in assay [1] is reported as “no binding”; in assay [2], “binds”; in assay [3], “no binding”; in assay [4], “no binding”.
Regarding “lipopolysaccharide-responsive and beige-like anchor protein (LRBA) (endogenous, biotinylated in HEK293 cells) (from UniProt P50851 1-2863)”, the binding result in assay [3] is given as “binds”.
In the case of “solute carrier family 3 member 2 protein (SLC3A2) (endogenous, biotinylated in HEK293 cells) (from UniProt P08195 1-529)”, the binding entry in assay [1] and in assay [4] was “binds” in each case.

The record behind these values is PMC10670248.
